Assay: general procedure: hybrid (solid and solution phase) peptide synthesis; BOC-Tyr hydroxysuccinimide ester

Row | Substance | step yield (coupling step) [%] | other results
1 | BOC-Tyr-2-[R-(3-amino-2-oxo-1-azepine)acetic acid]-Phe-Met-NH2 | 55 | –
2 | H-Tyr-2-[R-(3-amino-2-oxo-1-pyrrolidine)acetic acid]-Phe-Met-NH2 hydrochloride | – | step yield (late stage modification step, hydrochloride, cyclic): 82%
3 | BOC-Tyr-2-[R-(3-amino-2-oxo-1-pyrrolidine)acetic acid]-Phe-Met-NH2 | 81 | –
4 | H-Tyr-2-[R-(2-oxo-1-azepine)acetic acid]-Phe-Met-NH2 | – | step yield (late stage modification step, cyclic): 58%
